# The supplement of paper PMC10849652
# Sequences of proteins named here, by UniProt entry; tags and fusion partners are left off. A change or cut given only in a name is not applied to a line headed by its entry.
# UniProt P56277: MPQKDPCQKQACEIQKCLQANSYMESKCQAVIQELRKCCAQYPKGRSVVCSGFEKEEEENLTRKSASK
# UniProt P33552, whole entry, looked up: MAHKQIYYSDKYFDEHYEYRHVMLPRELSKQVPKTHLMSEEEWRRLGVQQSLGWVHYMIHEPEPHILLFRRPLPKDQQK
# UniProt Q96NY7: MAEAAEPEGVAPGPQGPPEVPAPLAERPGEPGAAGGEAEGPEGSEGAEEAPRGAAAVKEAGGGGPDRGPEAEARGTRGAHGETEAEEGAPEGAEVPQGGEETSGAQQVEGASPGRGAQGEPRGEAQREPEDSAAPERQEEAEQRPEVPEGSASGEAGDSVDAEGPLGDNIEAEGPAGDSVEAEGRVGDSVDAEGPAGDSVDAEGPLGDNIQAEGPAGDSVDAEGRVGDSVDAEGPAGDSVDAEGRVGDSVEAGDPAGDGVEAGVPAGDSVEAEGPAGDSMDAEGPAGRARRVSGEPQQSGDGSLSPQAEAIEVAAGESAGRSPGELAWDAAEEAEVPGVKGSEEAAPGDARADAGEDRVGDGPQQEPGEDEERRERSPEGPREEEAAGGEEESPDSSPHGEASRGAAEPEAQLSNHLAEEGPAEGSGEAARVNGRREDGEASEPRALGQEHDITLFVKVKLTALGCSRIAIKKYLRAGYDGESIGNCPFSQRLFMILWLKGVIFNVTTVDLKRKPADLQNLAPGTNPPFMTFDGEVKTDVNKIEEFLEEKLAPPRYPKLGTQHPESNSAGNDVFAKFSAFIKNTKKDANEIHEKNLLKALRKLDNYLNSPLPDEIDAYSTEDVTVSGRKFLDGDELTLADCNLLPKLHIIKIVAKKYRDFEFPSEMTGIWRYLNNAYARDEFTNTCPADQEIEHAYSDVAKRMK
# UniProt Q86X95: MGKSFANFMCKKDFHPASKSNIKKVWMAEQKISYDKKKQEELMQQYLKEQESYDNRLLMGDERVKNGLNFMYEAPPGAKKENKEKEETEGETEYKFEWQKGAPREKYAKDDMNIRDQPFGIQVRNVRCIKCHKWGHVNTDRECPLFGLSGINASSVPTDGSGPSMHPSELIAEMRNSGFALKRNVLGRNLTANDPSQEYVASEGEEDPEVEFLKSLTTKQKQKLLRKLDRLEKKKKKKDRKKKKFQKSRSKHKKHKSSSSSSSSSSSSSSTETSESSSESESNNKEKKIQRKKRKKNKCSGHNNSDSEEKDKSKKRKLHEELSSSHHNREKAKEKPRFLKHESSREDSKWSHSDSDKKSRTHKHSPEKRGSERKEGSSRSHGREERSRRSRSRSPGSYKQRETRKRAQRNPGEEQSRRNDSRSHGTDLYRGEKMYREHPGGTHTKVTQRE
# UniProt Q14677: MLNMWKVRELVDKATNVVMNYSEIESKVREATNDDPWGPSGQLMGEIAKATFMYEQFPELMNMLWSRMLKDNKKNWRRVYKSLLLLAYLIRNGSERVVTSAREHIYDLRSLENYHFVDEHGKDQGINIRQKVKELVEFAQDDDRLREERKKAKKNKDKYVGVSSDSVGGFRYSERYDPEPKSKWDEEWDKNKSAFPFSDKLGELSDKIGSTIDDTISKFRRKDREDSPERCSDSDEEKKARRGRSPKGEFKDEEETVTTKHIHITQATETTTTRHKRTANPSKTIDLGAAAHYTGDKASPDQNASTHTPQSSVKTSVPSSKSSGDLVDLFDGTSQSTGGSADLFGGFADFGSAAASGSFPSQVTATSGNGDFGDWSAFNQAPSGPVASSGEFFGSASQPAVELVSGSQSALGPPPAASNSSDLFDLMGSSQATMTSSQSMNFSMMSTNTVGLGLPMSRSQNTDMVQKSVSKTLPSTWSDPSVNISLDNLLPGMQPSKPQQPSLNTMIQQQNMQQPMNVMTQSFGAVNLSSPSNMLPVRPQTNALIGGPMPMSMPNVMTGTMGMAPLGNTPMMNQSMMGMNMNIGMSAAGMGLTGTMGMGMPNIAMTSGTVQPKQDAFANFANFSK
# UniProt Q9UDT6: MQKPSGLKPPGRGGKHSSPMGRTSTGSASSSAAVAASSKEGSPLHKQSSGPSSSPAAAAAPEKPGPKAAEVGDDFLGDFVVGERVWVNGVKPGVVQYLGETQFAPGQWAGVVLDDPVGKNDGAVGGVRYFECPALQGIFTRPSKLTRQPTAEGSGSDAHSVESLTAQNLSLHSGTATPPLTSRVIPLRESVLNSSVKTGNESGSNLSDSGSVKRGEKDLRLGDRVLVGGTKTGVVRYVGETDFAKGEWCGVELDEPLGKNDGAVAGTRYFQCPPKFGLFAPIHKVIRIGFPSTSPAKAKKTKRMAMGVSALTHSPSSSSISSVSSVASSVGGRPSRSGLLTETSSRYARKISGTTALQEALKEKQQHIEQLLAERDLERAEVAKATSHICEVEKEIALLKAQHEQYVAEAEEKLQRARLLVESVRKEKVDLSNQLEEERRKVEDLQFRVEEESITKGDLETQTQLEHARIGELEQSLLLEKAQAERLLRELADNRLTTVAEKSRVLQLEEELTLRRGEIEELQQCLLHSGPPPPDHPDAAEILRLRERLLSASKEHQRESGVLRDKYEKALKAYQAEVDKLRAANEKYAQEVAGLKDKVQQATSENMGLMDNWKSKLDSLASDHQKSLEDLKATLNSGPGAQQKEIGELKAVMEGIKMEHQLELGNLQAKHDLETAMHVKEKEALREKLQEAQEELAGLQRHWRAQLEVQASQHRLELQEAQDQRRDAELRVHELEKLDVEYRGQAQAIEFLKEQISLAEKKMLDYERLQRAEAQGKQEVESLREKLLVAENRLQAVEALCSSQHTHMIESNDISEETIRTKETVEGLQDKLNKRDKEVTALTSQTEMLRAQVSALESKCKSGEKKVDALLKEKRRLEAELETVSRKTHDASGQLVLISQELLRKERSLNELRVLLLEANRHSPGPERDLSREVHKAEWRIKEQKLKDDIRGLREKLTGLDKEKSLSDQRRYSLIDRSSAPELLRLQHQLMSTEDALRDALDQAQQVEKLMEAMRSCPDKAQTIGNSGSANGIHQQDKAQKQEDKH
# UniProt P51797: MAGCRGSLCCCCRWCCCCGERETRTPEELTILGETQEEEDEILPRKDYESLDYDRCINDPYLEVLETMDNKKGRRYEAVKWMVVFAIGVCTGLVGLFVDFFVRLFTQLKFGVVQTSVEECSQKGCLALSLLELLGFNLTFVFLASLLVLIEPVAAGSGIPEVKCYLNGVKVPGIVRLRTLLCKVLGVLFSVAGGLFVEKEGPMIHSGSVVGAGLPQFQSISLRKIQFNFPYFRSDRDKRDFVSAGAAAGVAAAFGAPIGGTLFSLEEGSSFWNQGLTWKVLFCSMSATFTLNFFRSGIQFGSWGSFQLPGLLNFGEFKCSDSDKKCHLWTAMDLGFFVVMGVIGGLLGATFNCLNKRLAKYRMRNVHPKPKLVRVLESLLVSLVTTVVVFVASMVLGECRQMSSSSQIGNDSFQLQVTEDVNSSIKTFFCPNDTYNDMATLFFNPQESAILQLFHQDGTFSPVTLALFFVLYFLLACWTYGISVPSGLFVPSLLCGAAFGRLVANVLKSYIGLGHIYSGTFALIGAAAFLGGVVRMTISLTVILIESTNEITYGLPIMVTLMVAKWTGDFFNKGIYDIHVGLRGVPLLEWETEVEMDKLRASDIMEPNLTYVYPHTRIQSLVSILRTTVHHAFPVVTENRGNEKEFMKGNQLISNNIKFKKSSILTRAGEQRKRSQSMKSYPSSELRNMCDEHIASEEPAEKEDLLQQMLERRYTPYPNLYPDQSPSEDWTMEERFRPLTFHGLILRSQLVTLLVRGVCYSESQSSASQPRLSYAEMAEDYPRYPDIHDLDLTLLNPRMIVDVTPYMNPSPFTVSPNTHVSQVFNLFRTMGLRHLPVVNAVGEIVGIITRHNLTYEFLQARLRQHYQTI
# UniProt Q9UBR5: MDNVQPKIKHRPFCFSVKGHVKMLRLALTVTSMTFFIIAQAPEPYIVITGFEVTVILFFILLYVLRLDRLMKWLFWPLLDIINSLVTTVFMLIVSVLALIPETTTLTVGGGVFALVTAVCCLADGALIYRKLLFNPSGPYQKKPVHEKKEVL
# UniProt Q07065: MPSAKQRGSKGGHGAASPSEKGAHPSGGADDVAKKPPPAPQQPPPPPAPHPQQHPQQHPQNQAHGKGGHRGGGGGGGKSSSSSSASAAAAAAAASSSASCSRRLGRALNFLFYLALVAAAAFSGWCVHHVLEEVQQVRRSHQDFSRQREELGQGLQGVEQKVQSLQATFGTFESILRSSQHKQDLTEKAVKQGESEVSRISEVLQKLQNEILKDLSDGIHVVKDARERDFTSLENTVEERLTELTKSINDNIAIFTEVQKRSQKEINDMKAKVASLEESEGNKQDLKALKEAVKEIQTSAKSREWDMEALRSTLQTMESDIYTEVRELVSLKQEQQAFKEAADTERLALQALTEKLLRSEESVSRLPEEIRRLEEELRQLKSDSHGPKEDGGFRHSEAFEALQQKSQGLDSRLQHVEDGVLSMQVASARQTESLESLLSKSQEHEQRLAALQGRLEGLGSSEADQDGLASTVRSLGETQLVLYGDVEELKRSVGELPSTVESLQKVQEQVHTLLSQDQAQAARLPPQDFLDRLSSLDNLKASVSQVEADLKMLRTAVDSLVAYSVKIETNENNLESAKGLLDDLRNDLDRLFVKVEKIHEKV
# UniProt Q96AJ1: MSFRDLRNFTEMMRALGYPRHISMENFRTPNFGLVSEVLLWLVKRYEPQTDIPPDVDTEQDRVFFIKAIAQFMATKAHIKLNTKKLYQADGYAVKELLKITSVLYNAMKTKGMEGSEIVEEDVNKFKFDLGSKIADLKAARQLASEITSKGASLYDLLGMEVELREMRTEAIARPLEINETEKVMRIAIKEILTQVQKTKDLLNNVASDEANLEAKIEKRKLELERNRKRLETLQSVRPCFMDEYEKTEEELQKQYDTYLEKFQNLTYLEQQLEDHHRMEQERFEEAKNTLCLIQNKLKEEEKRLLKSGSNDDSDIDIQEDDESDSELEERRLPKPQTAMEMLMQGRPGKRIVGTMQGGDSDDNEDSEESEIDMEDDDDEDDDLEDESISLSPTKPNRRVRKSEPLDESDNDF
# UniProt Q8IZ52: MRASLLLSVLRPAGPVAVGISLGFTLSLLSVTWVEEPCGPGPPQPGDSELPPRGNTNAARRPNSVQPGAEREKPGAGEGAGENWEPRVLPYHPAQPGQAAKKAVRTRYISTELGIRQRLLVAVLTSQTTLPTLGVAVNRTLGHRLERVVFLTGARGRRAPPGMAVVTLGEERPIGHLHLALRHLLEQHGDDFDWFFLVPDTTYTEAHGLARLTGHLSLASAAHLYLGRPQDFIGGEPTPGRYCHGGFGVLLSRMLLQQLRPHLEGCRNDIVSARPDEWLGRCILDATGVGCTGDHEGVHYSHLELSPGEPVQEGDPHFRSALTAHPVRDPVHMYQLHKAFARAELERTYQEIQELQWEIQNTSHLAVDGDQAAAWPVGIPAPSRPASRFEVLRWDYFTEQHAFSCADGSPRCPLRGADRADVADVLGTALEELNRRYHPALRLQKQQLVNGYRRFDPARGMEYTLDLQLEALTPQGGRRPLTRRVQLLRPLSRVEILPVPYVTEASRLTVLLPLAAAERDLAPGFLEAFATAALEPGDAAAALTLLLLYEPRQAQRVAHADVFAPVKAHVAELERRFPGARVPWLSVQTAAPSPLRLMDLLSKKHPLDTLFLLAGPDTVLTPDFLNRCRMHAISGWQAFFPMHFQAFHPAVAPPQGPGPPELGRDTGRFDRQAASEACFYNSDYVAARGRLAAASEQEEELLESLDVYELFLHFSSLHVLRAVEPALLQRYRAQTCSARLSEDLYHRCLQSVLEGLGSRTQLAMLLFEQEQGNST
# UniProt Q9P2E5: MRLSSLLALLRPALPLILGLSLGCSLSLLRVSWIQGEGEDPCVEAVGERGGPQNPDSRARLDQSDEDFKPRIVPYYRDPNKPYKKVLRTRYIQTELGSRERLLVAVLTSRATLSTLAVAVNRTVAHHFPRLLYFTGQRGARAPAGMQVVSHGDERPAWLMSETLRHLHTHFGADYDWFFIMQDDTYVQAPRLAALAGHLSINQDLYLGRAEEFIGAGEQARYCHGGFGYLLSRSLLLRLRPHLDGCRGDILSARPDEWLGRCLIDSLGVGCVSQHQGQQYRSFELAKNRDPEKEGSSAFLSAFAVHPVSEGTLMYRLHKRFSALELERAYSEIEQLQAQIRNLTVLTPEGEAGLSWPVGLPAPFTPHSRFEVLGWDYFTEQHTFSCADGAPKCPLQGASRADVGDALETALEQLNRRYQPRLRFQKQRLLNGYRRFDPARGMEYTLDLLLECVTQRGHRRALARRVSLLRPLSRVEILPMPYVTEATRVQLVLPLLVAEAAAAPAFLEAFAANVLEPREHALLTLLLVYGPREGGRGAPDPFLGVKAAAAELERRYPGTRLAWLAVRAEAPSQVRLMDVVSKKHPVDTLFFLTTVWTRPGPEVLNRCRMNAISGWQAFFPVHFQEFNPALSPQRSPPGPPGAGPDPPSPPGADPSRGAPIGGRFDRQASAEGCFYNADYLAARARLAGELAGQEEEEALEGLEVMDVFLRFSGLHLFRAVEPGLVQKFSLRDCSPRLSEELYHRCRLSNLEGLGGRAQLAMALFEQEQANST
# This is one part of the list.
# Compound: Cc1ncc(-c2ccnc(Nc3ccc(S(C)(=O)=O)cc3)n2)n1C(C)C
# Test: log2 fold change, soluble protein after heating vs DMSO (PISA); higher = thermal stabilisation; K562 lysate, 10 uM; active = over 0.2 and 3.5 SD of the protein, either way, in both replicates (recomputed)
# In short: (§1)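 Thermal stability, expressed as log-two fold change relative to solvent controls, is given from duplicates. Crude K562 extract in PBS pH 7.4 with 1 mM MgCl2, at 1 mg/mL protein, was treated with 10 μM compound for 30 min and heated in aliquots for 3 min across 48°C-58°C. After pooling, adjustment to 0.5% NP-40 at 4°C and centrifugation at 21,000xg for 90 min, supernatant protein was measured by TMTpro 16plex LC-MS/MS with channel sums equalised.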
row,Target,log2 fold change
1,CMC4 (UniProt P56277),inactive: -0.221
2,CLUL1 (UniProt Q15846),inactive: 0.04
3,CLASP1 isoform 4 (UniProt Q7Z460),inactive: 0.09
4,CKS2 (UniProt P33552),inactive: -0.102
5,CLN5 (UniProt O75503),inactive: 0.05
6,CMTR2 (UniProt Q8IYT2),inactive: 0.205
7,CLK1 isoform 3 (UniProt P49759),inactive: 0.055

# Compound: Cn1cc(-c2ccc3c(c2)CCN3C(=O)Cc2cccc(C(F)(F)F)c2)c2c(N)ncnc21
# Test: as above
# In short: as §1
row,Target,log2 fold change
1,CLIC6 (UniProt Q96NY7),inactive: -0.024
2,CIR1 (UniProt Q86X95),inactive: 0.268
3,CHMP4A (UniProt H0YIN6),inactive: -0.06
4,CLINT1 (UniProt Q14677),inactive: -0.02
5,CLIP2 (UniProt Q9UDT6),inactive: 0.087
6,CLCN6 isoform 5 (UniProt P51797),inactive: 0.067
7,CKLF (UniProt Q9UBR5),inactive: -0.118
8,CLCN2 (UniProt P51788),inactive: 0.054
9,CHTOP isoform 3 (UniProt Q9Y3Y2),inactive: 0.017
10,CKAP4 (UniProt Q07065),inactive: -0.036
11,CLK3 (UniProt P49761),inactive: -0.157
12,CHCHD6 (UniProt Q9BRQ6),inactive: -0.078
13,CHST2 (UniProt Q9Y4C5),inactive: -0.235
14,CLK2 (UniProt P49760),inactive: -0.022
15,CITED2 (UniProt Q99967),inactive: -0.094
16,CLUAP1 (UniProt Q96AJ1),inactive: 0.039
17,CHPF (UniProt Q8IZ52),inactive: 0.017
18,CHPF2 (UniProt Q9P2E5),inactive: 0.123

# Compound: Cn1cc(CNCC2CCN(c3ncc(C(=O)NO)cn3)CC2)c2ccccc21 [quisinostat]
# Test: as above
# In short: as §1
row,Target,log2 fold change
1,CLIC6 (UniProt Q96NY7),inactive: -0.081
2,CIR1 (UniProt Q86X95),inactive: -0.017
3,CMC4 (UniProt P56277),inactive: 0.023
4,CHMP4A (UniProt H0YIN6),inactive: -0.502
5,CLINT1 (UniProt Q14677),inactive: 0.183
6,CLIP2 (UniProt Q9UDT6),inactive: -0.117
7,CLCN6 isoform 5 (UniProt P51797),inactive: 0
8,CKLF (UniProt Q9UBR5),inactive: 0.093
9,CLCN2 (UniProt P51788),inactive: 0.068
10,CLEC11A (UniProt Q9Y240),inactive: 0.05
11,CHTOP isoform 3 (UniProt Q9Y3Y2),inactive: -0.004
12,"CLIP1, A0A3B3ITA2",inactive: -0.169
13,CKAP4 (UniProt Q07065),inactive: 0.098
14,CLK3 (UniProt P49761),inactive: 0.023
15,CHCHD6 (UniProt Q9BRQ6),inactive: 0.014
16,CHURC1-FNTB (UniProt B4DL54),inactive: -0.037
17,CHST2 (UniProt Q9Y4C5),inactive: 0.127
18,CLK2 (UniProt P49760),inactive: 0.037
19,CLUAP1 (UniProt Q96AJ1),inactive: -0.274
20,CMTM4 (UniProt Q8IZR5),inactive: 0.034
21,CHPF (UniProt Q8IZ52),inactive: 0.078
22,CHPF2 (UniProt Q9P2E5),inactive: -0.052

# Compound: Cn1cncc1[C@@](N)(c1ccc(Cl)cc1)c1ccc2c(c1)c(-c1cccc(Cl)c1)cc(=O)n2C [tipifarnib]
# Test: as above
# In short: as §1
row,Target,log2 fold change
1,CMC4 (UniProt P56277),inactive: -0.105
2,CLUL1 (UniProt Q15846),inactive: -0.046
3,CLASP1 isoform 4 (UniProt Q7Z460),inactive: -0.301
4,CKS2 (UniProt P33552),inactive: 0.106
5,CLN5 (UniProt O75503),inactive: -0.023
6,CMTR2 (UniProt Q8IYT2),inactive: -0.017
7,CLK1 isoform 3 (UniProt P49759),inactive: -0.021

# Compound: NC(=O)Nc1cc(-c2cccc(F)c2)sc1C(=O)N[C@H]1CCCNC1
# Test: as above
# In short: as §1
row,Target,log2 fold change
1,CLIC6 (UniProt Q96NY7),inactive: 0.104
2,CIR1 (UniProt Q86X95),inactive: -0.116
3,CMC4 (UniProt P56277),inactive: 0.033
4,CHMP4A (UniProt H0YIN6),inactive: 0.041
5,CLINT1 (UniProt Q14677),inactive: 0.111
6,CLIP2 (UniProt Q9UDT6),inactive: 0.026
7,CLCN6 isoform 5 (UniProt P51797),inactive: -0.046
8,CKLF (UniProt Q9UBR5),inactive: 0.002
9,CLCN2 (UniProt P51788),inactive: 0.036
10,CLEC11A (UniProt Q9Y240),inactive: -0.003
11,CHTOP isoform 3 (UniProt Q9Y3Y2),inactive: 0.029
12,"CLIP1, A0A3B3ITA2",inactive: 0.017
13,CKAP4 (UniProt Q07065),inactive: -0.079
14,CLK3 (UniProt P49761),inactive: 0.1
15,CHCHD6 (UniProt Q9BRQ6),inactive: 0.067
16,CHURC1-FNTB (UniProt B4DL54),inactive: 0.017
17,CHST2 (UniProt Q9Y4C5),inactive: -0.172
18,CLK2 (UniProt P49760),inactive: -0.065
19,CLUAP1 (UniProt Q96AJ1),inactive: -0.054
20,CMTM4 (UniProt Q8IZR5),inactive: -0.057
21,CHPF (UniProt Q8IZ52),inactive: 0.165
22,CHPF2 (UniProt Q9P2E5),inactive: 0.064
